EP2585123B1 (Planton GmbH, dated 2014)
Results are given in words; binding and its absence hold for the method and conditions named. Some entries that bind do so weakly or less than the wild type.

The chains behind the UniProt entries cited, without tags or fusion partners. Where a name states a change or a piece, a line headed by the entry shows the natural chain unless it says otherwise.
UniProt P02453: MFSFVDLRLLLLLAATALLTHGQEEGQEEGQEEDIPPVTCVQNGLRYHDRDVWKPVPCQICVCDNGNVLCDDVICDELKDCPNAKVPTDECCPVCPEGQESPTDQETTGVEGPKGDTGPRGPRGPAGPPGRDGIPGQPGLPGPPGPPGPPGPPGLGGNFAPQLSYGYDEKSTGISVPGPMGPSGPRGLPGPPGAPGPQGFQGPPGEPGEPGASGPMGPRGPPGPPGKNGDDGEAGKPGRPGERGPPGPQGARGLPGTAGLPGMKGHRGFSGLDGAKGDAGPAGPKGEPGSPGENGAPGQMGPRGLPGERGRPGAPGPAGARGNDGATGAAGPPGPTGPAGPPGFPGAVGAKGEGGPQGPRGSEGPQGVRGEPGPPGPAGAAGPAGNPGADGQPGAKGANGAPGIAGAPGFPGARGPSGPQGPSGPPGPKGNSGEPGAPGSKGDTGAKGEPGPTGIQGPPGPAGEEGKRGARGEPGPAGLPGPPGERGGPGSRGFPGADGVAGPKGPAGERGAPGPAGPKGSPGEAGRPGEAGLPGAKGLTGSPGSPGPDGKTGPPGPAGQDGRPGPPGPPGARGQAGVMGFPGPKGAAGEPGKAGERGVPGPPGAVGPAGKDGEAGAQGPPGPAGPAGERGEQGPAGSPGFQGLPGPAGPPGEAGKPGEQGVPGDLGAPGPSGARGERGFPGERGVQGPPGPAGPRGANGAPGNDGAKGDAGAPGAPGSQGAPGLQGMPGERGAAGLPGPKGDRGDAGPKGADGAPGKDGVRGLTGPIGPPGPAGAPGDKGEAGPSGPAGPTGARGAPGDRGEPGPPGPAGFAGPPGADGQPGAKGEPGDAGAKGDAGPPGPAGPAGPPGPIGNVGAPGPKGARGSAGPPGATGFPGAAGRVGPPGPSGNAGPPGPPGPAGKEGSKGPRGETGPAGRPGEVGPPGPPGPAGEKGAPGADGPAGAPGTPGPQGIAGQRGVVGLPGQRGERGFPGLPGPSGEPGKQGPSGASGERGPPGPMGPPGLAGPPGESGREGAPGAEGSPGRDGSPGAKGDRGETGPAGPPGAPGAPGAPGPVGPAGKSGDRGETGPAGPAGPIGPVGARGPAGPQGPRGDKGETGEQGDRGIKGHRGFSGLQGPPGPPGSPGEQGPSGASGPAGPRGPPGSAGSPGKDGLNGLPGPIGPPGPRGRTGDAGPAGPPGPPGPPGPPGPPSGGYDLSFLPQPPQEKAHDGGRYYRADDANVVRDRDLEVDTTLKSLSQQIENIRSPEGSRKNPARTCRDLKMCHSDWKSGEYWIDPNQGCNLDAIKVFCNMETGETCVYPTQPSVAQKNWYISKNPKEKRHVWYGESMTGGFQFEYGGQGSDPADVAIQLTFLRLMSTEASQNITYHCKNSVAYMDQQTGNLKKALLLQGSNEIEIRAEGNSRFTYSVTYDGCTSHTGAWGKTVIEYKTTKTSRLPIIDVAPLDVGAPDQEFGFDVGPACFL
UniProt P02465: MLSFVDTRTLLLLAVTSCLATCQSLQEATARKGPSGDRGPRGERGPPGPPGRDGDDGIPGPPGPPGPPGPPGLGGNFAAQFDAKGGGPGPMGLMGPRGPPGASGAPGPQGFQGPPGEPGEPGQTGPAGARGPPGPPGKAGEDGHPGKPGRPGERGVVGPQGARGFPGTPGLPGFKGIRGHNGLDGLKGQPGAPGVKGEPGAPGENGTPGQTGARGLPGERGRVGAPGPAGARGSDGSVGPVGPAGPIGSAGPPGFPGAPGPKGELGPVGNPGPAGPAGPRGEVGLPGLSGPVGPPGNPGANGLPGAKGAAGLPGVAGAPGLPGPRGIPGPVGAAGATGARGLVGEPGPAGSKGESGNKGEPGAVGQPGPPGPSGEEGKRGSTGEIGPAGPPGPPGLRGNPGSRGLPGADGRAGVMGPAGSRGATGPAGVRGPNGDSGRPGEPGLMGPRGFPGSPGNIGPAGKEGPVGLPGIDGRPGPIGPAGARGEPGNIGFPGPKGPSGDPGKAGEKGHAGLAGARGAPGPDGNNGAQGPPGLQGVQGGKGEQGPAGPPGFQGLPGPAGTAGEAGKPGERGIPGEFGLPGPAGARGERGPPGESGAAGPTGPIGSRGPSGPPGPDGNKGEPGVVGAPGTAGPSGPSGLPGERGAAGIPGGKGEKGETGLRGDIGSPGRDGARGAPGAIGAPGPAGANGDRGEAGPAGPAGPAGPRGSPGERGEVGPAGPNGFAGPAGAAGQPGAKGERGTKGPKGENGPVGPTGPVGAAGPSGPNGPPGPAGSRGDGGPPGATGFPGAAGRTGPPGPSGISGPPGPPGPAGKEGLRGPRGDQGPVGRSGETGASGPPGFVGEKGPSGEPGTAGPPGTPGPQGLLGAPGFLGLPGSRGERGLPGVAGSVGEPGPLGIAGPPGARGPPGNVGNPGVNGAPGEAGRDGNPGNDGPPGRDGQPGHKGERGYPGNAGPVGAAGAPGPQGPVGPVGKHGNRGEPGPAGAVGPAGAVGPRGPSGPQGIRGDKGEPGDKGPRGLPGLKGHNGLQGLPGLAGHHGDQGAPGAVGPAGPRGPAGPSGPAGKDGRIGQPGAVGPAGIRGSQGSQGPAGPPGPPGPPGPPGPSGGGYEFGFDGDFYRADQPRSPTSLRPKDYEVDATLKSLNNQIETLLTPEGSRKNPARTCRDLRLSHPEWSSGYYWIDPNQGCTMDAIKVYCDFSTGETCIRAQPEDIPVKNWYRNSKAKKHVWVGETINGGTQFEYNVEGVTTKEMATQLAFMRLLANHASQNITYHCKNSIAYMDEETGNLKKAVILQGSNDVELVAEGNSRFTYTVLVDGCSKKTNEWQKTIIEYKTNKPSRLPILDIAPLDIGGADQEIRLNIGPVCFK

Experiments:
[1] = target: T1, collagen scaffold (bovine collagen type I) (bovine) (UniProt P02453+P02465); assay: agar diffusion assay, release of hβD2 from coated collagen scaffold
[2] = target: T1, collagen scaffold (bovine collagen type I) (bovine); assay: microdilution assay, release of hβD2 from coated collagen scaffolds (2, 4, 30, 125 µg)

binding [1]: binds
binding [2]: binds
Binder: GIGDPVTCLKSGAICHPVFCPRRYKQIGTCGLPGTKCCKKP [human β-defensin-2]
